# The other results are listed elsewhere or left out. The main result of the screen is listed elsewhere. These columns were measured beside it and carry no call. The list favours compounds with an active or inconclusive main result. Words in brackets tell the shape of the fitted curve; partial curves, single points and poor fits give uncertain potencies.
# Experiment: qHTS Assay for Lipid Storage Modulators in Drosophila S3 Cells;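 as to cell number change: cells counted by Cell Tracker Red CMTPX staining in the red channel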
# Settings: BODIPY lipid droplet fluorescence, 18-24 h; for cell number change: measured here: cell count max response, cells fed with added oleic acid
# How it was run: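 Drosophila S3 cells loaded with oleic acid (400 uM, as added) and compounds at several concentrations; lipid droplets imaged by 488-nm laser-scanning cytometry, 500–530 nm intensity and object ratio to cell channel. Percent activity normalized to 20 uM Triacsin C.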
# [1] = measured here: cell number channel AC50, cells fed with added oleic acid
# [2] = measured here: lipid fluorescence (Fed channel) AC50, cells fed with added oleic acid
Structure (SMILES),cell number change,AC50 [1],AC50 [2]
Cc1ccc(S(=O)(=O)Nc2ccccc2CNC2CCCCC2)cc1,-8.47%,"0.731 µM [falling, full curve, poor fit]","0.731 µM [falling, full curve]"
CSc1nncc(/C(C)=N/O)n1,–,–,"6.51 µM [falling, single point]"
COc1ccc(N(CC(=O)Nc2cccc(N(C)S(C)(=O)=O)c2)S(=O)(=O)c2ccccc2)cc1Cl,-13.8%,–,"9.2 µM [falling, partial curve, poor fit]"
Nc1nc(SCC(=O)N2CCCC2)[nH]c(=O)c1NC(=O)c1ccco1,-19%,–,"3.66 µM [falling, full curve, poor fit]"
Cc1n(Cc2ccccc2)c2ccccc2[n+]1Cc1ccccc1,-16.1%,–,"29.1 µM [falling, single point]"
CC(=O)Nc1ccc(S(=O)(=O)N2CCC(c3nc4ccccc4[nH]3)CC2)cc1,–,"0.13 µM [rising, full curve, poor fit]",–
O=c1c2oc3ccccc3c2ncn1Cc1ccccc1F,–,–,"6.51 µM [falling, single point]"
CC(C)(C)c1cc[n+](CC(=O)Nc2cc(C(F)(F)F)ccc2N2CCOCC2)cc1,-32.7%,"0.00517 µM [falling, full curve, poor fit]",–
O=C(c1cc(S(=O)(=O)N2CCOCC2)ccc1Cl)N1CCC(Cc2ccccc2)CC1,31.9%,"0.00411 µM [rising, full curve, poor fit]","29.1 µM [rising, partial curve, poor fit]"
COc1cccc(CN(C)C(=O)c2ccc3nccnc3c2)c1,1.07%,–,"0.082 µM [rising, full curve, poor fit]"
COc1ccc(OCC(=O)N/N=C(\C)c2ccc(-n3ccnc3)cc2)cc1,38.6%,–,"0.58 µM [rising, partial curve, poor fit]"
O=C(Cc1ccc([N+](=O)[O-])cc1)c1c(O)cc(O)cc1O,14.6%,–,"2.91 µM [rising, single point]"
CC(=O)Nc1c(Cl)n(C(C)=O)c2ccccc12,10.5%,–,"23.1 µM [rising, single point]"
Oc1ccccc1/C=N/Nc1ncc(Br)cn1,-2.99%,–,–
COc1ccc(CNC(=O)C2COc3ccccc3O2)c(OC)c1 (configuration not stated),3.76%,–,"2.31 µM [rising, full curve, poor fit]"
CC(=O)O[C@H]1[C@H](C)OC=C[C@@H]1OC(C)=O,12.6%,–,"1.84 µM [rising, full curve, poor fit]"
CCN(/C=N/c1sc2c(c1C#N)CCCCC2)CC,-26.8%,"3.66 µM [falling, full curve, poor fit]","6.51 µM [falling, single point]"
O=C(OCc1nc2ccc(Cl)cc2n1CCO)c1ccc(O)cc1,24.3%,–,–
COc1ccc(C)cc1S(=O)(=O)Nc1cccnc1,58.3%,"29.1 µM [rising, single point]",–
Cn1c(SCC(=O)N2CCOCC2)nnc1-c1ccco1,19.2%,"0.0058 µM [rising, full curve, poor fit]",–
CC(C)CCNC(=O)c1ccc(Cn2c(=S)[nH]c3ccccc3c2=O)cc1,82.4%,"4.11 µM [rising, partial curve, poor fit]",–

Structure (SMILES),cell number change,AC50 [1],AC50 [2]
CCc1nnc(NS(=O)(=O)c2ccc(NCc3cc(Br)ccc3O)cc2)s1,-30.2%,"29.1 µM [falling, single point]","11.6 µM [falling, partial curve]"
CCCOC(=O)CCc1n[nH]c(=O)[nH]c1=O,-4.01%,–,"32.6 µM [falling, single point]"
COc1ccc(C2N(c3cccc(Cl)c3)C(=O)C3CCCN32)cc1 (configuration not stated),12.4%,–,"0.13 µM [rising, full curve, poor fit]"
C=CCc1ccc(OCCCCN2CC(C)CC(C)C2)c(OC)c1 (configuration not stated),-42.5%,"29.1 µM [falling, single point]",–
CC(=O)c1ccc(NC(=O)CSc2nc(=O)n3cccc(C)c3n2)cc1,37.6%,"0.326 µM [rising, full curve]","29.1 µM [rising, partial curve, poor fit]"
CC1(C)CC(=O)c2cc(C(=O)Nn3cnnc3)c(=O)n(-c3ccccc3)c2C1,-10.1%,–,"25.9 µM [falling, partial curve, poor fit]"
COc1cccc(C(=O)Nc2nc(-c3ccccc3)c(-c3ccccc3)o2)c1,-6.58%,"0.13 µM [falling, full curve, poor fit]","1.84 µM [falling, partial curve, poor fit]"
COCCNC(=O)c1ccc(N2CCC3(CC2)OCCO3)c([N+](=O)[O-])c1,16.1%,–,–
CCOC(=O)c1nnn(-c2nonc2N)c1-c1ccc(F)cc1,19.7%,–,–
CCO[C@@H]1OC(C(=O)NCc2nc3ccccc3[nH]2)=C[C@H](c2ccccc2)[C@H]1CCCO,-16.9%,–,"29.1 µM [falling, single point]"
COC(=O)c1nc(N)sc1-c1ccc(Cl)c(Cl)c1,1.46%,–,"1.3 µM [rising, full curve]"
COc1cc(NC(=O)Cn2nc(Cc3cccnc3)c3ccccc3c2=O)cc(OC)c1OC,0.264%,–,"0.731 µM [rising, full curve]"
COc1ccccc1NC(=O)CSc1nc(N)c(-c2ccccc2)c(=O)[nH]1,-2.35%,–,"3.26 µM [falling, full curve, poor fit]"
COc1cccc(C(=O)C(C#N)=C(SC)SC)c1,-57%,"6.51 µM [falling, partial curve]","7.31 µM [falling, partial curve]"
O=C(N/C=C/n1cnc2cc(C(F)(F)F)ccc21)c1ccccc1,-141%,"25.9 µM [falling, partial curve]","20.6 µM [falling, partial curve]"
CNc1nc(NC#N)nc(SC)n1,-31.6%,"29.1 µM [falling, single point]",–
O=C(N/N=C/c1ccccc1)c1cc(-c2ccc3c(c2)OCO3)n[nH]1,9.84%,–,–
CC(C)c1c(O)nc(SCc2ccccc2)[nH]c1=O,-38.5%,"29.1 µM [falling, single point]","0.164 µM [falling, full curve]"
COCCCNC(=O)C1CC(=O)OC1c1ccc(OC)c(OC)c1 (configuration not stated),-0.265%,"1.3 µM [rising, single point]",–
CCCCN(C(=O)C1CCC1)c1c(N)n(CC(C)C)c(=O)[nH]c1=O,-7%,–,–
O=c1[nH]n(-c2ccccn2)c(=O)c2ccccc12,-1.28%,–,–

Structure (SMILES),cell number change,AC50 [1],AC50 [2]
O=C(O)CCC(=O)Nc1ccc(-c2nc3ccc(C(=O)c4ccccc4)cc3[nH]2)cc1,0.88%,–,"0.58 µM [rising, full curve, poor fit]"
CC(=O)OCC1OC(n2ccc(=O)[nH]c2=O)C(O)C1O (configuration not stated),3.03%,–,"0.517 µM [falling, full curve, poor fit]"
O=C(O)CC(SCC(=O)Nc1ccccc1)C(=O)O (configuration not stated),38%,–,–
CC1CC(C)CN(C(=O)CCCn2c(=S)[nH]c3ccccc3c2=O)C1 (configuration not stated),1.81%,–,–
CCN(C(=O)COC(=O)CNS(=O)(=O)c1ccccc1)c1ccccc1,-71.6%,"29.1 µM [falling, single point]","29.1 µM [falling, single point]"
CC12CN3CC(C)(CN(C1)C3c1ccc(Cl)cc1Cl)C2O (configuration not stated),-16.4%,–,–
COc1ccc(-c2cc3nc(C)cc(NCCO)n3n2)cc1,-2.56%,"0.103 µM [falling, full curve, poor fit]",–
O=C(CSc1nnnn1Cc1ccccc1)Nc1ccccc1,-15.6%,–,"8.2 µM [rising, partial curve, poor fit]"
COc1cc(NC(=O)Cn2nc(C(F)(F)F)c3c2CCCC3)cc(OC)c1OC,9.37%,–,"2.31 µM [rising, partial curve]"
CNC(=S)NC1CC2CCCC(C1)N2Cc1ccccc1OC (configuration not stated),2.36%,–,"29.1 µM [falling, single point]"
O=C(NCC(O)CO)c1csc(Nc2cccc3ccccc23)n1 (configuration not stated),16.7%,–,–
CCOC(=O)/C=C1\CN(Cc2cc(OC)c(OC)c(OC)c2)S(=O)(=O)c2ccccc21,-12.3%,–,"13 µM [rising, single point]"
CC(C)(CNC(=O)c1ccc(S(=O)(=O)N2CCCC2)cc1)N1CCOCC1,–,"0.0517 µM [rising, full curve, poor fit]","0.058 µM [rising, partial curve, poor fit]"
Cc1cc2c(c(=O)n1Cc1cccnc1)C(c1ccc(F)cc1)C(C#N)=C(N)O2 (configuration not stated),89.2%,"7.31 µM [rising, partial curve]","0.259 µM [rising, partial curve]"
Cc1onc(-c2c(F)cccc2Cl)c1C(=O)NNC(=O)C1CCN(Cc2ccccc2)CC1,8.61%,–,–
Cc1ccc(C(=O)OCC(=O)c2ccc(Cl)s2)s1,-13.5%,–,"0.0291 µM [falling, full curve, poor fit]"
Cc1ccc(Sc2ccc(CO)cc2[N+](=O)[O-])cc1,-18%,–,"0.146 µM [rising, full curve, poor fit]"
Cc1nc(C)n(CC(=O)c2ccc(Cl)cc2Cl)n1,1.05%,–,–
Cc1ccccc1Nc1cc(C(=O)NCC2CCCO2)c2ccccc2n1 (configuration not stated),17.1%,–,"10.3 µM [rising, partial curve]"

# — PubChem BioAssay AID2685 (National Center for Advancing Translational Sciences (NCATS), 2010)
